Results reported in publication PMC10890620.
Results are given in words; binding and its absence hold for the method and conditions named. Binding seen in cells or lysates may run through a third protein. Binding calls can cover weak binding; strength is not graded here. Sequences can lack the tags named with a protein.

Target: T1, HA-tagged mouse tyrosinase (mouse) (UniProt P11344)
T1 sequence: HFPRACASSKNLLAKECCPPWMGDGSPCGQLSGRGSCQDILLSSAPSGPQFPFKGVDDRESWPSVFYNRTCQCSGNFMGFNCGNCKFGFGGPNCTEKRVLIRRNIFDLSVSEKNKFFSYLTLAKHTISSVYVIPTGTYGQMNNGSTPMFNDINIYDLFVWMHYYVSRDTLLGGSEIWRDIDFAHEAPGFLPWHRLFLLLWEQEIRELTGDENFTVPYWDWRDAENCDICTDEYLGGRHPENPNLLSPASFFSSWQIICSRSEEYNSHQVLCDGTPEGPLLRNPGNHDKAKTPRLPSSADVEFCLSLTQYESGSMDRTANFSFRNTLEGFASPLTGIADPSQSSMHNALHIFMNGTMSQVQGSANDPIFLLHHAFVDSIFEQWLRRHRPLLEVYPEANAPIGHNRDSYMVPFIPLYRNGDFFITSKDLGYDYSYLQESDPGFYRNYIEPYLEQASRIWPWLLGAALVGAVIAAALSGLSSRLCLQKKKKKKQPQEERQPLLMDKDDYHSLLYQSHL
Test: co-IP; HEK293T cells cotransfected; lysis in TBS-T (50 mM Tris-HCl pH 7.5, 0.15 M NaCl, 1% Triton X-100, 0.5% deoxycholic acid); IP with anti-HA antibody on protein A Sepharose overnight at 4 °C; blot with anti-myc

## myc-tagged RNF152, wild type (enzyme)
  binding: binds
